No constants are given. Whether binding was seen depends on the method and setting.

The chains behind the UniProt entries cited, without tags or fusion partners. Residues count along the entry.
UniProt P07211, residues 19-183: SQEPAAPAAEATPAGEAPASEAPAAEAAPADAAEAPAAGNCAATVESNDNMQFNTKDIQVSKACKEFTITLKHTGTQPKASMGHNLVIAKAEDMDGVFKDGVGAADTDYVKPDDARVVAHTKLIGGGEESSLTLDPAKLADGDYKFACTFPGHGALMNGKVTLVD

In the assay the target is Purified Laz (for biolayer interferometry) (N. gonorrhoeae) (UniProt P07211). In words: BLI; purified Laz immobilised to a BLI sensor and incubated in increasing concentrations of AniA; both purified. For orientation: In BLI a coated tip is dipped into the sample, and binding shifts an interference pattern.

B1: Nitrite reductase AniA of Neisseria gonorrhoeae FA1090, endogenous in living gonococci (enzyme)
chain: CGGEQAAQAPAETPAASAEAASSAAQATAETPAGELPVIDAVTTHAPEVPPAIDRDYPAKVRVKMETVEKTMKMDDGVEYRYWTFDGDVPGRMIRVREGDTVEVEFSNNPSSTVPHNVDFHAATGQGGGAAATFTAPGRTSTFSFKALQPGLYIYHCAVAPVGMHIANGMYGLILVEPKEGLPKVDKEFYIVQGDFYTKGKKGAQGLQPFDMDKAVAEQPEYVVFNGHVGSIAGDNALKAKAGETVRMYVGNGGPNLVSSFHVIGEIFDKVYVEGGKLINENVQSTIVPAGGSAIVEFKVDIPGSYTLVDHSIFRAFNKGALGQLKVEGAENPEIMTQKLSDTAYAGSGAASAPAASAPAASAPAASASEKSVY
notes: source: endogenous, living N. gonorrhoeae FA1090 (WT and Δlaz) cells
On to B1, for which the binding result is “no binding”.

These data come from publication PMC6277709, “Lipid-Modified Azurin of Neisseria gonorrhoeae Is Not Surface Exposed and Does Not Interact With the Nitrite Reductase AniA” (Frontiers in Microbiology, 2018).
